# Data source: PubChem BioAssay AID1259308 (NCATS, 2017)
# Test: 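Genes whose loss raises luciferase production in HEK293 cells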 (primary screen)
# Cell system: human HEK293 embryonic kidney cells stably expressing firefly luciferase (HEK-CMV-Luc2-Hygro)
# Knock-down reagent: single siRNA against human genes, 0.8 pmol siRNA per well
# Time to read-out: 72 h
# Measurement: 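Luciferase light (ONE-Glo) measured on one replicate plate set and viability (CellTiter-Glo) on the other, scaled to a negative control siRNA, with robust z-scores and luciferase per cell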
# Direction: total luciferase, z-score and total luciferase, % of control: higher = more reporter protein produced; luciferase per cell, z-score: higher = more reporter output per viable cell; viable cells, % of control: higher = more viable cells
# Hit rule: 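Active when the median/MAD z-score for overall luciferase is greater than 3; a gene was taken forward for validation with new siRNAs if at least two of its three siRNAs passed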
# Calls: active = raised luciferase; inactive = no rise
# Shown is an unselected part of about 59,000 deposited reagents. In the full data, about 1,510 (2.6%) were called active. 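Calls use total luciferase alone and ignore viability, so some active siRNAs may act by altering cell number.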 Unmarked entries are inactive. Reagent sequences are not shown.
gene,PubChem SID,"total luciferase, z-score","total luciferase, % of control","luciferase per cell, z-score","viable cells, % of control"
QTMAN (GeneID 79712),SID160749255,-1.69,48.2,-2.48,103
QTMAN (GeneID 79712),SID160749256,-0.916,63.7,-0.43,79.7
QTMAN (GeneID 79712),SID160749257,0.321,88.3,-0.179,103
TIAL1 (GeneID 7073),SID160718069,-0.192,78.1,-0.749,106
TIAL1 (GeneID 7073),SID160718070,1.72,116,1.24,93.5
TIAL1 (GeneID 7073),SID160718071,0.633,94.5,0.757,86.5
PRKACG (GeneID 5568),SID160714905,2.16,125,2.34,75.3
PRKACG (GeneID 5568),SID160714906,1.26,107,1.15,88.2
PRKACG (GeneID 5568),SID160731521,0.722,96.2,1.2,78.4
SPATA31E1 (GeneID 286234),SID160763817,-0.249,76.9,0.167,82.3
SPATA31E1 (GeneID 286234),SID160763819,-0.14,79.1,-0.393,98
SPATA31E1 (GeneID 286234),SID160763820,2.73,136,1.59,100
CAPN5 (GeneID 726),SID160729845,0.689,95.6,0.0676,105
CAPN5 (GeneID 726),SID160729856,-1.05,60.9,-0.555,78.8
CAPN5 (GeneID 726),SID160729867,2.04,122,1.63,89.2
CFP (GeneID 5199),SID160714137,1.36,109,1.08,91.6
CFP (GeneID 5199),SID160714138,-1.23,57.4,-1.39,92.4
CFP (GeneID 5199),SID160714139,-0.417,73.6,-0.765,101
PPP1R2P4 (GeneID 728970),SID160772299,-1.06,60.9,-0.15,70.8
PPP1R2P4 (GeneID 728970),SID160772300,-0.685,68.3,-0.231,81.1
PPP1R2P4 (GeneID 728970),SID160772302,-1.91,43.9,-1.66,76
ACTC1 (GeneID 70),SID160778015,-1.23,57.5,-1.65,99.1
ACTC1 (GeneID 70),SID160778026,-0.196,78,-0.513,99.7
ACTC1 (GeneID 70),SID160778037,1.65,115,1.97,76.3
ZNF28 (GeneID 7576),SID160719044,-0.486,72.2,-0.503,92.1
ZNF28 (GeneID 7576),SID160719045,0.0224,82.3,-0.485,105
ZNF28 (GeneID 7576),SID160719046,0.202,85.9,0.546,83.2
ZNF292 (GeneID 23036),SID160735292,0.122,84.3,0.501,82.6
ZNF292 (GeneID 23036),SID160735293,1.69,116,1.56,85.7
ZNF292 (GeneID 23036),SID160735294,-1.83,45.6,-2.37,95.1
LINC01548 (GeneID 728409),SID160726677,0.791,97.6,0.519,95.1
LINC01548 (GeneID 728409),SID160734345,0.0623,83.1,-0.192,97.7
LINC01548 (GeneID 728409),SID160771782,-0.911,63.8,-0.932,91.1
MAGEE1 (GeneID 57692),SID160746591,0.441,90.7,0.635,85.7
MAGEE1 (GeneID 57692),SID160746592,0.211,86.1,-0.157,100
MAGEE1 (GeneID 57692),SID160746593,0.0304,82.5,-0.597,108
DBT (GeneID 1629),SID160752834,0.137,84.6,0.468,83.6
DBT (GeneID 1629),SID160752845,-0.22,77.5,-0.606,102
DBT (GeneID 1629),SID160752856,0.718,96.2,-0.0465,109
WDR13 (GeneID 64743),SID160747875,-2.1,40.2,-2.76,93
WDR13 (GeneID 64743),SID160747877,-0.00171,81.9,-0.0767,93.3
WDR13 (GeneID 64743),SID160747878,-0.222,77.5,-0.652,103
C3orf80 (GeneID 401097),SID160733333,3.12 (active),144,2.84,76.2
C3orf80 (GeneID 401097),SID160767152,-1.91,44,-1.49,72.9
C3orf80 (GeneID 401097),SID160767153,0.735,96.5,0.999,82.9
ZNF331 (GeneID 55422),SID160743671,-0.605,69.9,-0.733,94.7
ZNF331 (GeneID 55422),SID160743672,0.467,91.2,0.407,91.5
ZNF331 (GeneID 55422),SID160743674,-0.0266,81.4,0.109,88.3
USP3 (GeneID 9960),SID160723549,0.1,83.9,-0.302,101
USP3 (GeneID 9960),SID160723550,-0.713,67.7,-0.902,95.9
USP3 (GeneID 9960),SID160723551,0.641,94.6,0.756,86.7
LMO2 (GeneID 4005),SID160731205,-0.191,78.1,-0.13,90.3
LMO2 (GeneID 4005),SID160776670,0.937,101,0.189,107
LMO2 (GeneID 4005),SID160776671,-0.846,65.1,-0.541,83.8
SPRY1 (GeneID 10252),SID160727711,0.0182,82.2,0.408,82.5
SPRY1 (GeneID 10252),SID160727719,-0.993,62.1,-1.04,91.4
SPRY1 (GeneID 10252),SID160727722,-0.323,75.5,0.119,81.7
C22orf46P (GeneID 79640),SID160734942,1.52,112,0.723,104
C22orf46P (GeneID 79640),SID160749065,0.707,96,0.619,91.1
C22orf46P (GeneID 79640),SID160749066,-0.376,74.4,-0.641,98.4
CLXN (GeneID 79645),SID160749079,0.788,97.6,0.562,94
CLXN (GeneID 79645),SID160749080,0.592,93.7,0.0357,104
CLXN (GeneID 79645),SID160749081,-0.0175,81.5,-0.743,111
CES3 (GeneID 23491),SID160736382,0.394,89.7,0.922,78.6
CES3 (GeneID 23491),SID160736383,0.325,88.3,0.671,82.7
CES3 (GeneID 23491),SID160736384,0.653,94.9,0.985,81.8
ANP32D (GeneID 23519),SID160736452,-0.571,70.5,-0.925,101
ANP32D (GeneID 23519),SID160736453,-0.897,64,-1.37,103
ANP32D (GeneID 23519),SID160736455,0.682,95.5,0.317,98.1
C1QL2 (GeneID 165257),SID160732613,0.723,96.3,1.15,79.6
C1QL2 (GeneID 165257),SID160732614,-2.87,24.8,-3.98,78.9
C1QL2 (GeneID 165257),SID160760165,0.26,87,-0.407,108
SEC24D (GeneID 9871),SID160723310,0.0745,83.4,-0.389,103
SEC24D (GeneID 9871),SID160723311,0.482,91.5,0.482,90
SEC24D (GeneID 9871),SID160723312,1.7,116,1.85,79.4

10 of these entries, set out differently.
CAPN5 (GeneID 726) [SID160729856] → total luciferase, z-score: -1.05; total luciferase, % of control: 60.9; luciferase per cell, z-score: -0.555; viable cells, % of control: 78.8
CAPN5 (GeneID 726) [SID160729867] → total luciferase, z-score: 2.04; total luciferase, % of control: 122; luciferase per cell, z-score: 1.63; viable cells, % of control: 89.2
CFP (GeneID 5199) [SID160714137] → total luciferase, z-score: 1.36; total luciferase, % of control: 109; luciferase per cell, z-score: 1.08; viable cells, % of control: 91.6
CFP (GeneID 5199) [SID160714138] → total luciferase, z-score: -1.23; total luciferase, % of control: 57.4; luciferase per cell, z-score: -1.39; viable cells, % of control: 92.4
CFP (GeneID 5199) [SID160714139] → total luciferase, z-score: -0.417; total luciferase, % of control: 73.6; luciferase per cell, z-score: -0.765; viable cells, % of control: 101
PPP1R2P4 (GeneID 728970) [SID160772299] → total luciferase, z-score: -1.06; total luciferase, % of control: 60.9; luciferase per cell, z-score: -0.15; viable cells, % of control: 70.8
PPP1R2P4 (GeneID 728970) [SID160772300] → total luciferase, z-score: -0.685; total luciferase, % of control: 68.3; luciferase per cell, z-score: -0.231; viable cells, % of control: 81.1
PPP1R2P4 (GeneID 728970) [SID160772302] → total luciferase, z-score: -1.91; total luciferase, % of control: 43.9; luciferase per cell, z-score: -1.66; viable cells, % of control: 76
ACTC1 (GeneID 70) [SID160778015] → total luciferase, z-score: -1.23; total luciferase, % of control: 57.5; luciferase per cell, z-score: -1.65; viable cells, % of control: 99.1
ACTC1 (GeneID 70) [SID160778026] → total luciferase, z-score: -0.196; total luciferase, % of control: 78; luciferase per cell, z-score: -0.513; viable cells, % of control: 99.7
